Reference: PubChem BioAssay (NCATS)
Inconclusive results, whose numbers are uncertain, are shown with a selection of clear calls. Potencies of inconclusive entries are doubtful fits and often do not repeat. Active and inactive are the calls of the source. The call rests on the fitted dose curve; in most records, active means well fitted activation curve with a large enough effect; inconclusive means small, poorly fitted or top-dose-only effect, or another doubt; inactive means no such curve, though single readings can be large or run the other way.

biological target: Rap guanine nucleotide exchange factor 3 (Homo sapiens) (UniProt O95398); test: Counterscreen qHTS for agonist of cAMP-regulated guanine nucleotide exchange factor 3 (EPAC1) (AID 1645889); conditions: EPAC1 Rap1B-BODIPY-GDP exchange, fluorescence; activation: at 154 µM (top of the series) unless noted; further: nearly all actives have a fitted effect of over 40% in size; on activation: % of control where 0% means no effect
Outline: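 Rap1B-BODIPY-GDP 250 nM + GDP 50 uM; cpds 7-pt, final 9.74 nM–152 uM (activator mode) or from 7.32 nM upwards (inhibitor mode); RT; FI 480/540 nm at 5 and 30 min, then ± cAMP, reread.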
Potency means the concentration at half of the fitted maximal effect.

Row | SMILES | Potency | activation
1 | O=C(N/N=C\c1c(O)ccc2ccccc12)c1ccc(S(=O)(=O)N2CCCCC2)cc1 | inconclusive: 2 µM [activator, partial curve, poor fit] | –
2 | C[n+]1ccc(/C=C/c2c[nH]c3ccccc23)cc1 | active: 35.5 µM | –
3 | CC1CCN(c2ccc3c(c2)S(=O)(=O)c2cccc(C(=O)NC4CCCCC4)c2C3=O)CC1 | active: 50.1 µM | –
4 | Cc1ccc2c(c1)N(Cc1cccc(F)c1)C(=O)C(C)O2 (centres undefined) | – | inconclusive: 121% [activator]
5 | COc1cccc(Nc2nnc(-c3cc4ccc(O)cc4oc3=O)s2)c1 | inconclusive: 79.4 µM [activator, partial curve, poor fit] | –
6 | COCCn1c2nc(=O)n(-c3ccccc3)c(=O)c-2nc2ccccc21 | active: 39.8 µM | –
7 | COc1ccc(Nc2cccc3ccccc23)cc1 | inconclusive: 20 µM [activator, partial curve] | –
8 | CN1CC=C2C(C#N)=C(N)C(C#N)(C#N)C(c3ccsc3)C2C1 (centres undefined) | inconclusive: 56.2 µM [activator, partial curve, poor fit] | –
9 | N#CC(C#N)=C1C=C2C=C(N3CCOCC3)CCC2CC1 (centres undefined) | inconclusive: 28.2 µM [activator, partial curve, poor fit] | –
10 | COc1ccc2c(c1)CCC1C2=NN(/C(C)=C/C(C)=O)C1c1cccc(F)c1 (centres undefined) | inconclusive: 14.1 µM [activator, full curve, poor fit] | –
11 | O=C1NC(=O)C2(N1)C(=O)c1cccc3cccc2c13 (centres undefined) | active: 44.7 µM | –
12 | CN1/C(=C\C=C(/C#N)C(=O)Nc2ccc(Cl)cc2)C(C)(C)c2ccccc21 | inactive | –
13 | COc1ccccc1C(=O)Oc1ccc2c(c1)O/C(=C\c1ccncc1)C2=O | active: 35.5 µM | –
14 | CCN1C/C(=C/c2ccc(N3CCOCC3)cc2)C(=O)/C(=C/c2ccc(N3CCOCC3)cc2)C1 | active: 39.8 µM | –
15 | COc1cc2c3nnc(-c4ccc(F)cc4)c-3cn(Cc3cccc(C)c3)c2cc1OC | inactive | –
16 | CCN(CC)c1ccc2oc(=O)c(C)nc2c1 | active: 39.8 µM | –
17 | O=C1c2cccc3c(O)ccc(c23)C(=O)N1c1ccc(Cl)cc1 | active: 39.8 µM | –
18 | CCCCN(C)C1=CC2=CC(=C(C#N)C#N)CCC2CC1 (centres undefined) | active: 39.8 µM | –
19 | N#C/C(=C/c1ccc(N2CCCCC2)o1)C(=O)Nc1ccc(Cl)cc1 | active: 12.6 µM | –
20 | CC(=NNC(=O)c1ccncc1)c1ccc2ccccc2c1O | active: 39.8 µM | –

Row | SMILES | Potency | activation
21 | Cc1ccc(-c2nc(S(=O)(=O)c3ccc(C)cc3)c(N3CCOCC3)o2)cc1 | – | inconclusive: 38.8% [activator]
22 | CN(C)c1ccc(C(=O)/C=C/c2ccc(Br)cc2)cc1 | inconclusive: 6.31 µM [activator, full curve, poor fit] | –
23 | Cc1ccc2oc(=O)c(/C=C(\O)c3cccs3)nc2c1 | active: 39.8 µM | –
24 | COc1ccc2c(c1)C(=O)CCC2c1ccccc1 (centres undefined) | inconclusive: 31.6 µM [activator, partial curve, poor fit] | –
25 | Cc1cc2nc3c(=O)n(C)c(=O)n(C)c3nc2cc1N=CN(C)C | active: 44.7 µM | –
26 | CCCN1CC=C2C(C#N)=C(N)C(C#N)(C#N)C(c3cccc(OC)c3OC)C2C1 (centres undefined) | inconclusive: 50.1 µM [activator, partial curve, poor fit] | –
27 | O=C(NCc1ccc(F)cc1)c1cccc2c1C(=O)c1ccc(N3CCC(Cc4ccccc4)CC3)cc1S2(=O)=O | inconclusive: 3.98 µM [activator, partial curve] | –
28 | CCOC(=O)c1cc2n(c1N)-c1ccccc1C2=O | active: 31.6 µM | –
29 | CCN(CC)c1ccc2cc(-c3nnc(-c4cccc(Cl)c4)o3)c(=O)oc2c1 | inconclusive: 44.7 µM [activator, partial curve, poor fit] | –
30 | Cc1cccc(C(C)C)c1-n1nnnc1-c1ccccc1 | inconclusive: 0.0891 µM [activator, full curve, poor fit] | –
31 | CCSc1nnc(-c2sc3nnc(-c4ccccc4)c(-c4ccccc4)c3c2N)o1 | inconclusive: 0.447 µM [activator, full curve, poor fit] | –
32 | Cc1ccc(/C=C/C(=O)c2ccc(N3CCOCC3)cc2)s1 | – | inconclusive: 26.4% [activator]
33 | CN1CCS/C1=C\C=C1/SC(=S)N(CC(=O)O)C1=O | inconclusive: 10 µM [activator, full curve] | –
34 | Cc1ccc2oc(=O)n(Cc3ccc(OC(C)C)cc3)c2c1 | – | inconclusive: 62.1% [activator]
35 | CCOCCCNc1nc2c(C)cccn2c(=O)c1/C=C1\SC(=S)N(CC(C)C)C1=O | inconclusive: 0.282 µM [activator, full curve, poor fit] | –
36 | O=C1c2cccc3c(O)ccc(c23)C(=O)N1Cc1ccccc1 | active: 39.8 µM | –
37 | Cc1ccc(O)c(C(=O)c2cc(C#N)c(=O)n(-c3nccs3)c2)c1 | active: 35.5 µM | –
38 | Fc1ccc(Nc2cncc(-c3ccsc3)c2)cc1Cl | inconclusive: 8.91 µM [activator, full curve] | –
39 | CN1/C(=C\C=C2/SC(=S)N(CC(=O)O)C2=O)C(C)(C)c2ccccc21 | active: 10 µM | –

Single records, from the list above. Order of values: Potency | activation
`O=C(NCc1ccc(F)cc1)c1cccc2c1C(=O)c1ccc(N3CCC(Cc4ccccc4)CC3)cc1S2(=O)=O` is entered as inconclusive: 3.98 µM [activator, partial curve] | –
`CC(=NNC(=O)c1ccncc1)c1ccc2ccccc2c1O` is entered as active: 39.8 µM | –
`COc1ccc(Nc2cccc3ccccc23)cc1` is entered as inconclusive: 20 µM [activator, partial curve] | –
